We go through two substances from publication PMC11515964.

The chains behind the UniProt entries cited, without tags or fusion partners.
UniProt P49407: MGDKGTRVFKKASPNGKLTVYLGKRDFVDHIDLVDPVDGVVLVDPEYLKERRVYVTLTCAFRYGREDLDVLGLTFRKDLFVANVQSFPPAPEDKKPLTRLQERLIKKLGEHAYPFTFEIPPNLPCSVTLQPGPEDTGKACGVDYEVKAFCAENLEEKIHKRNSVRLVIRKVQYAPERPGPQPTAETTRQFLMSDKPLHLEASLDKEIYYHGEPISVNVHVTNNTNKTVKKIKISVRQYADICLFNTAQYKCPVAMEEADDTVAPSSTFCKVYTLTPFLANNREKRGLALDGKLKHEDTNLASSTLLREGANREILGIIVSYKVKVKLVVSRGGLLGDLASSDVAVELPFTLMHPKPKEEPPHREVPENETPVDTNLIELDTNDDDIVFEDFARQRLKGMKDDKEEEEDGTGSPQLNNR
UniProt P32121: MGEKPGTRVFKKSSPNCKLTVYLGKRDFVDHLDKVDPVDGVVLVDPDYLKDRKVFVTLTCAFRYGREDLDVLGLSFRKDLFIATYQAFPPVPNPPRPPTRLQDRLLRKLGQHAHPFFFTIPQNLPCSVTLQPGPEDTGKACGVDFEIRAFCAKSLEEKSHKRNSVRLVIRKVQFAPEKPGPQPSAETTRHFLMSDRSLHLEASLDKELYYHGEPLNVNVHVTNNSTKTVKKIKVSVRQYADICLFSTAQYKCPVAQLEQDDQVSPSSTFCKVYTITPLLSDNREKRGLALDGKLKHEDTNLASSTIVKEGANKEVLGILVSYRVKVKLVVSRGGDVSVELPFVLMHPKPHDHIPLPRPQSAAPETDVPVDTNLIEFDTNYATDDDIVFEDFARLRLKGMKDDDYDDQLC

Results are given in words; binding and its absence hold for the method and conditions named. Binding seen in cells or lysates may run through a third protein. Some results given as binding are weak or reduced against the parent protein; the word gives no strength.

One test has as its target T1, CMKLR1-WT-smBiT (human) (UniProt Q99788).
T1 sequence: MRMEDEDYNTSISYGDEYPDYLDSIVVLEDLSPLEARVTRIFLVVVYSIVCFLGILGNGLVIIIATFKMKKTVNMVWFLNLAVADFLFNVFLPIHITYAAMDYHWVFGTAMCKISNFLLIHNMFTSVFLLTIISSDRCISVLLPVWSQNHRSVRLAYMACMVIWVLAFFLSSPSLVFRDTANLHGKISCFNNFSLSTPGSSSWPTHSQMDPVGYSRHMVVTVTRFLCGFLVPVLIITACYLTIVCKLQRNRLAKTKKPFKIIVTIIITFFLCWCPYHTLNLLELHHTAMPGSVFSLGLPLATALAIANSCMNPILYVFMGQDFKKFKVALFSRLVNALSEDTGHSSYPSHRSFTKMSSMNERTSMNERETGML
As to the kind of experiment: split reporter; NanoBiT β-arrestin recruitment; HEK293T cotransfected with receptor-smBiT and LgBiT-β-Arr1 or LgBiT-β-Arr2; stimulated with different concentrations of full-length chemerin or C9; luminescence for 30 min.

In another test the target is T2, GPR1-WT-smBiT (human) (UniProt P46091).
T2 sequence: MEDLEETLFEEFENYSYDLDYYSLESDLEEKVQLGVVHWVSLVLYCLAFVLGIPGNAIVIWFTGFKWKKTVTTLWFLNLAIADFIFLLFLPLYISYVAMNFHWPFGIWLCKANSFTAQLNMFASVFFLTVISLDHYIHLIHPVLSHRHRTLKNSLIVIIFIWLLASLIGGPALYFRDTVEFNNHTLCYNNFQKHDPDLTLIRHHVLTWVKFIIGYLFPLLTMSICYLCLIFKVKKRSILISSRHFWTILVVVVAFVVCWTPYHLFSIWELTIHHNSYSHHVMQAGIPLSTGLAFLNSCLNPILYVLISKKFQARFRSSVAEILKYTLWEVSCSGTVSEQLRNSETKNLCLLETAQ
The description is as above.

With “LgBiT-β-Arr1 (from UniProt P49407 1-418)”, the binding result in the test with CMKLR1-WT-smBiT (human) and with GPR1-WT-smBiT (human) was “binds” in each case.
Take “LgBiT-β-Arr2 (from UniProt P32121 1-409)”: the binding result in the test with CMKLR1-WT-smBiT (human) was “binds”.
